The list does not hold the whole screen: it is rich in T/C values a quarter to a half above the control, in often repeated tests (any T/C) and in doses without a T/C. Further doses and runs are listed elsewhere. T/C: endpoint of the treated group in % of that of the vehicle group. Some entries give survivors of the animals treated and no T/C: the source holds a T/C of zero for them, seemingly a mark for toxic or unscored doses. Some doses without a T/C left all or most animals alive at the check, yet need not have been tolerated: the source hardly ever lists a survival T/C far under the control, and the zero likely stands for such cases as well. Counts of survivors are from the toxicity check (mostly the fifth day) where no day follows; animals may have died later. Schedules are NCI's codes, taken here to give the interval after Q, in days (D) or hours (H), and the number of doses after X. Where survival is the endpoint, the PubChem record calls one and a half times the control and up active, and a quarter to a half above the control has no call in these data; cut-offs in other NCI protocols can differ. Some entries hold several experiments; their values stand side by side, smallest first. Some molecules as drawn cover several salts, stereoisomers or complexes of the source; a dose is that of the sample tested. Some T/C values carry the count of animals alive at the toxicity check (mostly the fifth day); without a count, all were alive then.
Test system: BDF1 mice, P388 leukemia ip, median survival T/C
Assay: NCI In Vivo Anticancer Drug Screen. Data for tumor model P388 Leukemia (intraperitoneal) in B6D2F1 (BDF1) mice
Conditions: T/C endpoint: median survival time, higher T/C = longer survival
In short: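 Survival ratio, drug arm over vehicle arm, in mice with a transplanted tumour.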

[1] = dose: 50.0 mg/kg/injection, schedule: Q01DX005 (ip), vehicle: saline with Tween-80
[2] = dose: 100.0 mg/kg/injection, schedule: Q01DX005 (ip), vehicle: saline with Tween-80
[3] = dose: 200.0 mg/kg/injection, schedule: Q01DX005 (ip), vehicle: saline with Tween-80
[4] = dose: 50.0 mg/kg/injection, schedule: Q01DX009 (ip), vehicle: saline with Tween-80
[5] = dose: 200.0 mg/kg/injection, schedule: Q01DX009 (ip), vehicle: saline with Tween-80
[6] = dose: 100.0 mg/kg/injection, schedule: Q04DX003 (ip), vehicle: saline with Tween-80
[7] = dose: 400.0 mg/kg/injection, schedule: Q04DX003 (ip), vehicle: saline with Tween-80
[8] = dose: 100.0 mg/kg/injection, schedule: Q01DX009 (ip), vehicle: saline with Tween-80
[9] = dose: 400.0 mg/kg/injection, schedule: Q01DX009 (ip), vehicle: saline with Tween-80
[10] = dose: 25.0 mg/kg/injection, schedule: Q01DX009 (ip), vehicle: saline with Tween-80
[11] = dose: 200.0 mg/kg/injection, schedule: Q04DX003 (ip), vehicle: Klucel (hydroxypropylcellulose) (HPC)
[12] = dose: 400.0 mg/kg/injection, schedule: Q04DX003 (ip), vehicle: Klucel (hydroxypropylcellulose) (HPC)

CC1=C(c2ccccc2)OC(c2ccccc2)=C[P+]1(c1ccccc1)c1ccccc1
survivor count [1]: 0 of 5
survivor count [2]: 0 of 5
survivor count [3]: 0 of 5

CC1(C)N=C(N)N=C(N)N1c1ccc(CCCCc2ccc(Cl)cc2Cl)cc1
T/C (dose: 6.0 mg/kg/injection, schedule: Q01DX009 (ip), vehicle: saline): 131 % of control
T/C (dose: 6.25 mg/kg/injection, schedule: Q01DX002 (ip), vehicle: saline): 130 % of control
T/C (dose: 9.0 mg/kg/injection, schedule: Q01DX009 (ip), vehicle: saline): 131 % of control
T/C (dose: 12.5 mg/kg/injection, schedule: Q01DX002 (ip), vehicle: saline): 130 % of control

Cc1cc(C(C)(CC(C)C)c2ccc(O)c(C)c2)ccc1O
survivor count (dose: 400.0 mg/kg/injection, schedule: Q01DX009 (ip), vehicle: gum acacia): 0 of 6

CCN(CC)CCOC(=O)c1ccccc1N(c1ccccc1)c1ccccc1
survivor count (dose: 250.0 mg/kg/injection, schedule: Q01DX009 (ip), vehicle: Klucel (hydroxypropylcellulose) (HPC)): 3 of 6

Cc1c2cc3c(cc2cc2c4cc5c(cc4cc[n+]12)OCO5)OCO3 (tested in a mixture with another compound)
T/C (dose: 0.88 mg/kg/injection, schedule: Q04DX003 (ip), vehicle: saline): 136 % of control
T/C (dose: 1.32 mg/kg/injection, schedule: Q04DX003 (ip), vehicle: saline): 140 % of control
T/C (dose: 2.0 mg/kg/injection, schedule: Q04DX003 (ip), vehicle: saline): 145 % of control
survivor count (dose: 12.5 mg/kg/injection, schedule: Q01DX009 (ip), vehicle: saline): 6 of 6
T/C (dose: 18.7 mg/kg/injection, schedule: Q04DX003 (ip), vehicle: saline): 136 % of control

CCCCCCCCN1CCCNCC1
survivor count (dose: 50.0 mg/kg/injection, schedule: Q01DX009 (ip), vehicle: saline): 5 of 6
survivor count (dose: 100.0 mg/kg/injection, schedule: Q01DX009 (ip), vehicle: saline): 0 of 6

CCCCOCN(COCCCC)c1ccccc1Cl
T/C [4]: 129 % of control
T/C [5]: 132 and 140 % of control

ClCCCCCCCCc1ccccc1
T/C [6]: 127 % of control
T/C (dose: 150.0 mg/kg/injection, schedule: Q04DX003 (ip), vehicle: saline with Tween-80): 127 % of control
T/C (dose: 200.0 mg/kg/injection, schedule: Q04DX003 (ip), vehicle: saline with Tween-80): 127 % of control
T/C (dose: 400.0 mg/kg/injection, schedule: Q01DX009 (ip), vehicle: saline): 125 % of control
T/C [7]: 131 % of control

Cc1cc(C)c(C#N)c([S][Sn]([Cl])([Cl])[S]c2nc(C)cc(C)c2C#N)n1
survivor count [7]: 1 of 6

CN(C=O)C(C(=O)Nc1cccc2c(OC(=O)C(N(C)C=O)(N(C)C=O)N(C)C=O)c(N=Nc3ccc(S(=O)(=O)Nc4nccs4)cc3)cc(N=Nc3ccc(S(=O)(=O)Nc4nccs4)cc3)c12)(N(C)C=O)N(C)C=O (tested in a mixture with another compound)
T/C [1]: 136 % of control
T/C [2]: 134 % of control
T/C [3]: 137 % of control

COc1ccc(CCNC(=O)Cc2ccc(OC)c(OC)c2)cc1OC
survivor count [8]: 6 of 6
survivor count [5]: 6 of 6
survivor count [9]: 6 of 6

CCC[CH2][Sn]([Cl])([Cl])[CH2]CCC
survivor count (dose: 6.25 mg/kg/injection, schedule: Q01DX009 (ip), vehicle: saline with Tween-80): 3 of 6
survivor count (dose: 12.5 mg/kg/injection, schedule: Q01DX009 (ip), vehicle: saline with Tween-80): 0 of 6
survivor count [10]: 0 of 6
survivor count [4]: 0 of 6
survivor count [8]: 0 of 6

CCC(=O)Oc1c(Cl)c(Cl)c(C#N)c(Cl)c1Cl
survivor count [7]: 5 of 6

O=[N+]([O-])c1ccc(NS(=O)(=O)c2cc(Cl)ccc2Cl)c(C(F)(F)F)c1
survivor count [5]: 3 of 6

C[N+](C)(Cn1nc(Cl)c2ccc([N+](=O)[O-])cc21)Cn1nc(Cl)c2ccc([N+](=O)[O-])cc21
survivor count [7]: 1 of 6

COc1ccc(Cl)cc1N
survivor count [5]: 0 of 6

CN(c1ccccc1)P(=O)(N1CC1)N1CC1
T/C (dose: 16.5 mg/kg/injection, schedule: Q04DX003 (ip), vehicle: saline with Tween-80): 136 % of control

Nc1nc(N)nc(N)n1
survivor count (dose: 1500.0 mg/kg/injection, schedule: Q01DX009 (ip), vehicle: Klucel (hydroxypropylcellulose) (HPC)): 0 of 6

Clc1cc(CBr)c(CBr)cc1Cl
survivor count [10]: 3 of 6
survivor count [4]: 0 of 6

CS(=O)(=O)OCC(=O)NCCNC(=O)COS(C)(=O)=O
T/C [6]: 142 % of control [5 of 6 alive]
survivor count (dose: 600.0 mg/kg/injection, schedule: Q04DX003 (ip), vehicle: saline with Tween-80): 4 of 6

Nc1n[nH]c(N)n1.[Ni]
survivor count [9]: 6 of 6

NC(=S)N/N=C/c1ccc(C(F)(F)F)cn1
T/C (dose: 13.3 mg/kg/injection, schedule: Q01DX009 (ip), vehicle: Klucel (hydroxypropylcellulose) (HPC)): 127 % of control
T/C (dose: 20.0 mg/kg/injection, schedule: Q01DX009 (ip), vehicle: Klucel (hydroxypropylcellulose) (HPC)): 132 % of control [4 of 6 alive]
survivor count (dose: 30.0 mg/kg/injection, schedule: Q01DX009 (ip), vehicle: Klucel (hydroxypropylcellulose) (HPC)): 4 of 6
survivor count (dose: 45.0 mg/kg/injection, schedule: Q01DX009 (ip), vehicle: Klucel (hydroxypropylcellulose) (HPC)): 1 of 6
survivor count (dose: 67.5 mg/kg/injection, schedule: Q01DX009 (ip), vehicle: Klucel (hydroxypropylcellulose) (HPC)): 0 of 6

CC(/C=C/c1ccccc1)=N\NC(=O)CN(C)C
survivor count (dose: 200.0 mg/kg/injection, schedule: Q01DX009 (ip), vehicle: saline): 5 of 6

C=C(NC(C)=O)C(=O)O
survivor count [11]: 6 of 6
survivor count [12]: 6 of 6

O=[N+]([O-])c1ccc(Sc2ccc([N+](=O)[O-])cc2)cc1
T/C [6]: 130 % of control

CC(=O)NC(CCC(=O)C=[N+]=N)C(=O)O (configuration not stated)
T/C (dose: 0.4 mg/kg/injection, schedule: Q01DX010 (ip), vehicle: other): 136 % of control [5 of 6 alive]

CN(N/C=N/S(=O)(=O)c1ccccc1)c1ccccc1
survivor count [5]: 6 of 6

COC(=O)C(C)C(C)=O (configuration not stated)
survivor count (dose: 100.0 mg/kg/injection, schedule: Q04DX003 (sc), vehicle: olive oil, sesame oil, peanut oil): 6 of 6
survivor count (dose: 200.0 mg/kg/injection, schedule: Q04DX003 (sc), vehicle: olive oil, sesame oil, peanut oil): 6 of 6

CCCCOC(=O)C(N)Cc1ccc(OC)c(N(CCCl)CCCl)c1 (configuration not stated)
survivor count (dose: 12.0 mg/kg/injection, schedule: Q04DX003 (ip), vehicle: saline): 6 of 6

OC1(CSc2ccccc2)CCCCC1
T/C [4]: 131 % of control
T/C [5]: 131 % of control

CC(=O)O[C@H]1CC[C@H]2[C@@H]3CC[C@H]4C[C@@H]5[C@H](C[C@]4(C)[C@H]3CC[C@]12C)C5(F)F
survivor count (dose: 25.0 mg/kg/injection, schedule: Q01DX009 (ip), vehicle: Klucel (hydroxypropylcellulose) (HPC)): 6 of 6
survivor count (dose: 25.0 mg/kg/injection, schedule: Q04DX003 (ip), vehicle: Klucel (hydroxypropylcellulose) (HPC)): 6 of 6
survivor count (dose: 50.0 mg/kg/injection, schedule: Q01DX009 (ip), vehicle: Klucel (hydroxypropylcellulose) (HPC)): 6 of 6
survivor count (dose: 50.0 mg/kg/injection, schedule: Q04DX003 (ip), vehicle: Klucel (hydroxypropylcellulose) (HPC)): 6 of 6
survivor count (dose: 100.0 mg/kg/injection, schedule: Q01DX009 (ip), vehicle: Klucel (hydroxypropylcellulose) (HPC)): 6 of 6
survivor count (dose: 100.0 mg/kg/injection, schedule: Q04DX003 (ip), vehicle: Klucel (hydroxypropylcellulose) (HPC)): 6 of 6
survivor count [11]: 6 of 6
survivor count [12]: 6 of 6

CCC(=N\NC(=S)NCCN(CC)CC)/C(C)=N/NC(=S)NCCN(CC)CC
T/C (dose: 3.13 mg/kg/injection, schedule: Q01DX009 (ip), vehicle: saline): 130 % of control
T/C (dose: 6.25 mg/kg/injection, schedule: Q01DX009 (ip), vehicle: saline): 130 % of control

Reference: PubChem BioAssay AID328 (DTP/NCI, 2004)
